Test results from patent publication US20070258982A1.
Results are given in words; binding and its absence hold for the method and conditions named. Some binding calls cover weakened binding; strength is not graded here.

Experiments:
murine IL-22 (murine) [1] = biological target: T1, murine IL-22 (murine) (UniProt Q9JJY9); assay: SPR (BIA)
T1 sequence: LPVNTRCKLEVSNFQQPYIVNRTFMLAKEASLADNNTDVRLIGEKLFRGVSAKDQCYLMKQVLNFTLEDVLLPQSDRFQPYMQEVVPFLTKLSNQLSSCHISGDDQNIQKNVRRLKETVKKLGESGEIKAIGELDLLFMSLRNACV

murine IL-22 (murine) [2] = biological target: T1, murine IL-22 (murine); assay: real-time biospecific interaction analysis (BIA)
murine IL-22 (murine) [3] = biological target: T1, murine IL-22 (murine); assay: ELISA of serum IL-22 in psoriatic mice treated with 356A11
murine IL-22 (murine) [4] = biological target: T1, murine IL-22 (murine); assay: sandwich ELISA of serum IL-22 in arthritic mice treated with 356A11

- binding (murine IL-22 (murine) [1]): binds
- binding (murine IL-22 (murine) [2]): binds
- binding (murine IL-22 (murine) [3]): binds
- binding (murine IL-22 (murine) [4]): binds
B1: 356A11 human monoclonal anti-IL-22 antibody (Examples 10, 11, 14, 15) (antibody, V domains shown)
VH: QVQLVQSGAEVKKPGASVKVSCKASGYTFTNYYMHWVRQAPGQGLEWVGWINPYTGSAFYAQKFRGRVTMTRDTSISTAYMELSRLRSDDTAVYYCAREPEKFDSDDSDVWGRGTLVTVSS
VL: QAVLTQPPSVSGAPGQRVTISCTGSSSNIGAGYGVHWYQQLPGTAPKLLIYGDSNRPSGVPDRFSGSKSGTSASLAITGLQAEDEADYYCQSYDNSLSGYVFGGGTQLTVLG
